PMC11255254, “ER-associated VAP27-1 and VAP27-3 proteins functionally link the lipid-binding ORP2A at the ER-chloroplast contact sites” (Nature Communications, 2024)
These are yes or no findings as the source states them, for the method shown. Binding can be weak; no strength is given. For some of these results: Binding seen in cells or lysates may run through a third protein. For some of these results: Where a sequence is shown, tags or fusion partners need not be part of it.

Sequences of proteins named here, by UniProt entry; tags and fusion partners are left off. A change or cut given only in a name is not applied to a line headed by its entry.
UniProt Q8VZ95: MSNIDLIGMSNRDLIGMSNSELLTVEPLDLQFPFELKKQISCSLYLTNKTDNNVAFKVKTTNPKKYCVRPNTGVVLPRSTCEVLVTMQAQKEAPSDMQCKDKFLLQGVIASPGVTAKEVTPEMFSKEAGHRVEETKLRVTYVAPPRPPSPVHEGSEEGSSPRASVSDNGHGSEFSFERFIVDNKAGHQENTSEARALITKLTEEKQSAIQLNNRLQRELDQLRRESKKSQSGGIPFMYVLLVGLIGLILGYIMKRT

Assays:
[1] = target: VAP27-1ΔTMD (cytosolic domain of VAP27-1), yeast two-hybrid bait (Arabidopsis thaliana) (UniProt Q8VZ95); assay: two-hybrid; direct yeast two-hybrid; VAP27ΔTMD as baits, full-length ORP2A as prey
[2] = target: VAP27-3ΔTMD (cytosolic domain of VAP27-3), yeast two-hybrid bait (Arabidopsis thaliana); assay: as above
[3] = target: GST-VAP27-3ΔTMD (Arabidopsis thaliana); assay: pull-down; His-ORP2A extracted from E. coli in lysis buffer (50 mM NaH2PO4, 300 mM NaCl, pH 8.0) incubated with recombinant GST-VAP27 (ΔTMD) fixed on glutathione agarose; eluates blotted with anti-His serum
[4] = target: GST-VAP27-1ΔTMD (Arabidopsis thaliana) (UniProt Q8VZ95); assay: as above

binding [1] | binding [2] | binding [3] | binding [4] | Binder
binds | binds |  |  | full-length ORP2A, yeast two-hybrid prey (protein, UniProt Q940Y1 1-721) MRVKELHPLCCITLESPHGINSQSPEEPVTTALTRSRSLPAKSLTGGSESETVAGILYKWTNFGKGWRSRWFLLRNGILSYSKIRRPENLNLLSPDDDVRLIGDISGERLSRMDSCSGRRKQQKTVGIVHLKVSSFRESKSDDRKFYIFTATKTLHLRTDSITDRAAWLQALASTKCIFPLRSLNGDFSFIPPKDLSISTERLKKRLHEEGMNENLVKECEQIMLSEFSEMHGQVKLLHEERTNLLDALRQLEAANLEVGASGKHEFSSLGRGKYSECSTTASSDGKQEFEDVSEEDEPSFHDTKEFFNEPNIGSESNLAISGHTDIKRRTKLPDPAEKEKGVSLWSMIKDNVGKDLTRVCLPVYFNEPISSLQKCFEDLEYSYLLDRAYEHGKSGNGLLRALNVAAFAVSGYASTEGRHCKPFNPLLGETYEADFPEKGIRFFSEKVSHHPTVIACHCEGKGWKFWGDTNLRSKFWGRSIQVEPVGVLTLEFDDGEVFQWSKVTSTIYNIILGKLYCDHHGVMQIRGNRQYSCTLKFKEQSILERNPHQVNGFVEDVAGQKAATIFGKWDDSLYYVAGDGINKSKVSDPASNASLLWKRTKPPPNVTRYNLTSFAITLNELTPGLQEILPPTDSRLRPDQRHLENGEYEKANLEKQRLERRQRMSRQLQESGWRPRWFERQGESDTFKYTGGYWEARGHRNWDDCPDIFGEFTEELADAA
 |  | binds | binds | His-ORP2A (full-length ORP2A fused to His) (protein, UniProt Q940Y1 1-721) MRVKELHPLCCITLESPHGINSQSPEEPVTTALTRSRSLPAKSLTGGSESETVAGILYKWTNFGKGWRSRWFLLRNGILSYSKIRRPENLNLLSPDDDVRLIGDISGERLSRMDSCSGRRKQQKTVGIVHLKVSSFRESKSDDRKFYIFTATKTLHLRTDSITDRAAWLQALASTKCIFPLRSLNGDFSFIPPKDLSISTERLKKRLHEEGMNENLVKECEQIMLSEFSEMHGQVKLLHEERTNLLDALRQLEAANLEVGASGKHEFSSLGRGKYSECSTTASSDGKQEFEDVSEEDEPSFHDTKEFFNEPNIGSESNLAISGHTDIKRRTKLPDPAEKEKGVSLWSMIKDNVGKDLTRVCLPVYFNEPISSLQKCFEDLEYSYLLDRAYEHGKSGNGLLRALNVAAFAVSGYASTEGRHCKPFNPLLGETYEADFPEKGIRFFSEKVSHHPTVIACHCEGKGWKFWGDTNLRSKFWGRSIQVEPVGVLTLEFDDGEVFQWSKVTSTIYNIILGKLYCDHHGVMQIRGNRQYSCTLKFKEQSILERNPHQVNGFVEDVAGQKAATIFGKWDDSLYYVAGDGINKSKVSDPASNASLLWKRTKPPPNVTRYNLTSFAITLNELTPGLQEILPPTDSRLRPDQRHLENGEYEKANLEKQRLERRQRMSRQLQESGWRPRWFERQGESDTFKYTGGYWEARGHRNWDDCPDIFGEFTEELADAA
